Laboratory results: ChEMBL document CHEMBL5665443, “Enzyme Inhibitor Single Concentration assay results for EUbOPEN Chemogenomics Library” (2024)

The chains behind the UniProt entries cited, without tags or fusion partners. Where a name states a change or a piece, a line headed by the entry shows the natural chain unless it says otherwise.
UniProt O95243: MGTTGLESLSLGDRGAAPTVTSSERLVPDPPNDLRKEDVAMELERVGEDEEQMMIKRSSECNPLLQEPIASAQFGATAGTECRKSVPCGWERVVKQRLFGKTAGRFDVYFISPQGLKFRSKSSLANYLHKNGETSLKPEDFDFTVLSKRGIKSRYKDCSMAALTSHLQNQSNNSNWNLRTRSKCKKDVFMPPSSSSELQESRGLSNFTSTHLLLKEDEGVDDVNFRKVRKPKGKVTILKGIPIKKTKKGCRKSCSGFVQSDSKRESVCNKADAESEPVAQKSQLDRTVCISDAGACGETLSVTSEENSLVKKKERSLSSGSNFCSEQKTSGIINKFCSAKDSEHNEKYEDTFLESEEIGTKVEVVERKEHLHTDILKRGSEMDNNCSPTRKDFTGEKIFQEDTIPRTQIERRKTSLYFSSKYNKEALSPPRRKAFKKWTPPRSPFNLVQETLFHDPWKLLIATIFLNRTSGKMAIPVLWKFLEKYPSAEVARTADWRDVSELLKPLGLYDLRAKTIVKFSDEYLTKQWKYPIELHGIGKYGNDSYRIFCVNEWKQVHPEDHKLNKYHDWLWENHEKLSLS
UniProt Q96FI4, whole entry: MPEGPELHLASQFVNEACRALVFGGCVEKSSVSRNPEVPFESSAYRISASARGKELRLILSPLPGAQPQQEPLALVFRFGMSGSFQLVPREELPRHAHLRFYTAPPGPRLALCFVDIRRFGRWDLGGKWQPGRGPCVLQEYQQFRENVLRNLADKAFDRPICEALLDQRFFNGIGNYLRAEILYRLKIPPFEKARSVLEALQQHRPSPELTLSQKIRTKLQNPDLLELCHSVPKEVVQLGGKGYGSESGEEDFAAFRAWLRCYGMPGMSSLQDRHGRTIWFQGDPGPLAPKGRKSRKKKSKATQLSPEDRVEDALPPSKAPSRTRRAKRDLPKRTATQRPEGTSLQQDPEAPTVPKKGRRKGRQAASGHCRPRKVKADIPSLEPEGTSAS
UniProt O15527, whole entry: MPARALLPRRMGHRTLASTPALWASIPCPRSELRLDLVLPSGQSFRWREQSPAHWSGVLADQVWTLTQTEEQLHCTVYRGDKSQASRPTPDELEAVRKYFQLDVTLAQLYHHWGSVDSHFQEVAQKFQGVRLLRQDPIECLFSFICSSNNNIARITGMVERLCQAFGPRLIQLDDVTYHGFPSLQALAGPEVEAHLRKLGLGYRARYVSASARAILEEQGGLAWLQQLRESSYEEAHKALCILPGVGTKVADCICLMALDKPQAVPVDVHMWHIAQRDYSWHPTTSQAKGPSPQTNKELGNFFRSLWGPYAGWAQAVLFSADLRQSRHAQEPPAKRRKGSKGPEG
UniProt Q13569: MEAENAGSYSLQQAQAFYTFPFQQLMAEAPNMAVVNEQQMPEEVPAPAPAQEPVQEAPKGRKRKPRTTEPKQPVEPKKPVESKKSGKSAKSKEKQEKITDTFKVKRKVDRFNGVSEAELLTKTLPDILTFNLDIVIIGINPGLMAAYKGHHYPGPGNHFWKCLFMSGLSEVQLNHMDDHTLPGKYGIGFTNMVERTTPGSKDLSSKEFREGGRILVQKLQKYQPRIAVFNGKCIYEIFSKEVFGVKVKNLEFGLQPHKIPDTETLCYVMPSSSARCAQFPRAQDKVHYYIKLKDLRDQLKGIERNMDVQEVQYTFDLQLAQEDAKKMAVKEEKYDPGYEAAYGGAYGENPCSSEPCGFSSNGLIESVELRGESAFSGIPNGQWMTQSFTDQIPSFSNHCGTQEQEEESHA
UniProt P13051, whole entry: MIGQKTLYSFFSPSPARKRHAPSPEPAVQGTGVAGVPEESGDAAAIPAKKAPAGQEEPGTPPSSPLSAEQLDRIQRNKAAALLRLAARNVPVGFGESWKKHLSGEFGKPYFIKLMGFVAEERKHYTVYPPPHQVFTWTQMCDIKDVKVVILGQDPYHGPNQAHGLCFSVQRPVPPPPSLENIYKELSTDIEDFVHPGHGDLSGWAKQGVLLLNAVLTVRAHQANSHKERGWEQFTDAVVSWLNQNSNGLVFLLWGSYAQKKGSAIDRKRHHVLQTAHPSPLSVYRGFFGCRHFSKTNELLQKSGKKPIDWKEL

Tests used:
Conditions in all cases: Compound Concentration 10.0 uM, Hit No
[1] = target: Methyl-CpG-binding domain protein 4 (Homo sapiens) (UniProt O95243);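 note: MBD4 activity read as fluorescence at 594 nm from cleavage and release of a quenched duplex DNA oligonucleotide, with APE1 coupled to incise the strand and raise turnover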
[2] = target: Endonuclease 8-like 1 (Homo sapiens) (UniProt Q96FI4);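 note: fluorescence at 594 nm from quenched duplex DNA oligonucleotides released by NEIL1 cleavage and strand separation, reported as reduction of this enzyme activity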
[3] = target: T1, Endonuclease 8-like 2 (Homo sapiens) (UniProt Q969S2);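 note: fluorescence at 594 nm reports NEIL2 cutting and release of a quenched double-stranded DNA oligo substrate, reduced signal read as inhibition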
T1 sequence (whole entry): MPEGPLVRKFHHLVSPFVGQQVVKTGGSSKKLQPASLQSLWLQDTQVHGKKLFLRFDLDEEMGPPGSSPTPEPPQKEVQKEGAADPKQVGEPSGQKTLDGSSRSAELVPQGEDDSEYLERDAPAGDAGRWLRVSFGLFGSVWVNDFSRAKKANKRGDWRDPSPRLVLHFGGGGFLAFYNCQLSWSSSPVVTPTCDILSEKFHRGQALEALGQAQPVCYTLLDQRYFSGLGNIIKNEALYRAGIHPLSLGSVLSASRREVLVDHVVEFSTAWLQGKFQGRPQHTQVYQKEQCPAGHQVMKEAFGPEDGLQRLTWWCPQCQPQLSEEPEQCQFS

[4] = target: N-glycosylase/DNA lyase (Homo sapiens) (UniProt O15527);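 note: OGG1 cleavage of a quenched duplex DNA oligonucleotide, coupled to APE1 for strand incision, read as fluorescence at 594 nm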
[5] = target: T2, Single-strand selective monofunctional uracil DNA glycosylase (Homo sapiens) (UniProt Q53HV7);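 note: enzymatic SMUG1 assay coupled with APE1, reading fluorescence at 594 nm released when a quenched double-stranded DNA oligonucleotide substrate is cleaved and separated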
T2 sequence (whole entry): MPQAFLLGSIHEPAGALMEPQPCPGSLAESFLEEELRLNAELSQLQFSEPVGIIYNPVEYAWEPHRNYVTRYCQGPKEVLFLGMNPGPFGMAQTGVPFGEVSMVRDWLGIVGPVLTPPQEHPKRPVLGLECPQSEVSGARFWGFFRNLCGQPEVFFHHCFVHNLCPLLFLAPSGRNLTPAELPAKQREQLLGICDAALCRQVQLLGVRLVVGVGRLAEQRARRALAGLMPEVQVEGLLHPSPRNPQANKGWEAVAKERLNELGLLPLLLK

[6] = target: G/T mismatch-specific thymine DNA glycosylase (Homo sapiens) (UniProt Q13569);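 note: human TDG cleavage of quenched duplex DNA oligonucleotides coupled to APE1, strand release read as fluorescence at 594 nm, inhibition of TDG activity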
[7] = target: Uracil-DNA glycosylase (Homo sapiens) (UniProt P13051);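 note: UNG excision on a quenched double-stranded DNA oligo probe, with APE1 added for strand incision and turnover, read as fluorescence at 594 nm as strands separate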

C[C@@H]1C[C@H](N)C[C@H](c2ccncc2NC(=O)c2ccc(F)c(-c3c(F)cccc3F)n2)C1
inhibition [1]: -6.09%
inhibition [2]: 4.89%
inhibition [3]: 8.31%
inhibition [4]: -5.7%
inhibition [5]: -1.22%
inhibition [6]: 43.4%
inhibition [7]: -0.444%
